{
  "source": "patent US11447504B2",
  "about": "“Macrocyclic chlorine substituted indole derivatives” (Bayer Aktiengesellschaft, priority 2017, dated 2022)",
  "test_system": "HMC-1-8",
  "assay": "Antiproliferation assay 7, HMC-1-8",
  "assay_type": "cell-based",
  "conditions": "read-out: Antiproli HMC-1-8 IC50 median; HMC-1-8 cells, 72 hours, CellTiter-Glo",
  "note": "A number of entries come with more than one value. They are shown here; other results are not. The source may hold further records. The values listed for one entry differ for a reason that is not stated; dose, time, organism, isomer or construct need not be as stated for each record.",
  "data": [
    {"smiles": "CCc1c2c(nn1C)CN(CC(F)F)CCCCn1c(C(=O)O)c(CCCOc3cccc4cc(F)ccc34)c3ccc(Cl)c-2c31", "values": [
      {"measurement": "IC50", "value": "5.43 µM and 13 µM"}
    ]}
  ]
}
